No constants are given. Whether binding was seen depends on the method and setting. A result given as binding can be weak or reduced; the word gives no strength. For some of these results: Sequences can lack the tags named with a protein. For some of these results: Binding seen in cells or lysates may run through a third protein. Values belong to the molecule of their own block, whether it stands above or below them.
Experiments:
[1] = biological target: T1, Cdc24, yeast two-hybrid fusion (S. pombe) (UniProt O75004); assay: two-hybrid; Matchmaker system (Clontech), modified pGBKT7 bait and modified pGAD GH prey in AH109; growth on quadruple dropout medium (SD/-Ade/-His/-Leu/-Trp)
T1 sequence: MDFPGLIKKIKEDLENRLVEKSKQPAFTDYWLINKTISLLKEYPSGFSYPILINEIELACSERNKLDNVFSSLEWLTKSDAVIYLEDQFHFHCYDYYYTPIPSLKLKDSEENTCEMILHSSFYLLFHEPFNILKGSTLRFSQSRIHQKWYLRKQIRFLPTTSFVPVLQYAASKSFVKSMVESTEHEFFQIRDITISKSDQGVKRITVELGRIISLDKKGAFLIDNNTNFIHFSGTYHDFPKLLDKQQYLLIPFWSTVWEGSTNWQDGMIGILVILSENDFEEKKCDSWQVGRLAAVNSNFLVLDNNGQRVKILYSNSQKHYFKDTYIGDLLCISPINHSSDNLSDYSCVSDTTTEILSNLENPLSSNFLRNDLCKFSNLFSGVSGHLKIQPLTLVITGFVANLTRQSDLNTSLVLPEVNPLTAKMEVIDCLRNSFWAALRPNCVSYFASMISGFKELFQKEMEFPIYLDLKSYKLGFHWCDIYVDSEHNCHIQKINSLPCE

Amino acid sequences for entries named in this document (tags omitted). A change or cut given only in a name is not applied to a line headed by its entry.
UniProt O94542: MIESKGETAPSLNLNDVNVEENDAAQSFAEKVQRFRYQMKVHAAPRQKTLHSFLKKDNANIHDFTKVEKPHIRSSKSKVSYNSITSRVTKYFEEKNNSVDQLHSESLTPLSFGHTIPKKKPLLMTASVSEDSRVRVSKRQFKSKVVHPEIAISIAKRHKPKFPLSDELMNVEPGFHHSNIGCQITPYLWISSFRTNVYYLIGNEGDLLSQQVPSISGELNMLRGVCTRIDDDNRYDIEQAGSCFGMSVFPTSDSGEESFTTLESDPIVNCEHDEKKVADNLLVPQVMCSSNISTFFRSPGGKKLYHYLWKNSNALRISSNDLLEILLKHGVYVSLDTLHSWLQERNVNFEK

[2] = biological target: T2, Cdc24-YFH co-overexpressed with Dna2 and purified from fission yeast (S. pombe) (UniProt O75004); assay: cross-linking; CXMS: Dna2-Cdc24-Pxd1(227–351) complex formed on anti-FLAG beads and eluted with 3× FLAG peptide; about 12 µg cross-linked by BS3 or DSS (0.5 mM, 1 h, room temperature), trypsin, LC-MS/MS, pLink; both purified
T2 sequence: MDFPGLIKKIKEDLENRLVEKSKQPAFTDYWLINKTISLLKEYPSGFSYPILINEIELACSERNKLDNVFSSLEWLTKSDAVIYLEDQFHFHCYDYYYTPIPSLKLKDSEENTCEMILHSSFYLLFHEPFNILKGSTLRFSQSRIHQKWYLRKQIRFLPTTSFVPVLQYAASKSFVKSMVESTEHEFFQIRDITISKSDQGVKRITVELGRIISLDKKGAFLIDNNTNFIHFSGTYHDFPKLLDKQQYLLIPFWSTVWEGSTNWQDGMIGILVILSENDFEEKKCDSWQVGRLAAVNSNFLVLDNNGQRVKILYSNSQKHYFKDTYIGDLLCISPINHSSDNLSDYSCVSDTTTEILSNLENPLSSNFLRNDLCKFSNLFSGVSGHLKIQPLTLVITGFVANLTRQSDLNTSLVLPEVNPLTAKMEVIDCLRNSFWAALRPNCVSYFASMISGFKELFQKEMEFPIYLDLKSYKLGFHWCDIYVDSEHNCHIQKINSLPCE

[3] = biological target: Pxd1, yeast two-hybrid fusion (S. pombe); assay: two-hybrid; Matchmaker system (Clontech), modified pGBKT7 bait and modified pGAD GH prey in AH109; growth on quadruple dropout medium (SD/-Ade/-His/-Leu/-Trp)
[4] = biological target: Full-length Pxd1 fused with the TAP tag (S. pombe); assay: co-IP; fission yeast lysate in lysis buffer A (50 mM Tris-HCl pH 8.0, 0.1 M NaCl, 10% glycerol, 0.05% NP-40); TAP-tagged protein immunoprecipitated with IgG Sepharose beads, Myc-tagged partner by immunoblotting; wild-type background

binding [1]: binds
Molecule: Pxd1, yeast two-hybrid fusion (S. pombe)

binding [2]: binds
Molecule: Pxd1(227–351) purified from E. coli (from UniProt O94542) (domain or fragment)

binding [3]: binds
B1: Dna2, yeast two-hybrid fusion (protein, UniProt Q9URU2 1-1397)
chain: MFNDQSKTTSSVKGICATTDNNHGNLKKTNSTPFRKNYLLNGRTKLKLENFAYNASTEISSPKISEKKHSSLPIKRKNTFNESSTSFSPFTKAHKEITDDLKPDKSFTRKSDLNSQDMPVCFQETSKDLCRSSSTQHLLDHQTTDSTIIDMKPVSTNSKSDVFTLYTDETVLLRRCASDNKPLINNNLSSSNVSENQSRSFGSYDEVKNQGNNLHKVPSLVSIIRNARSSEQSRIAANSSCLLKGSDTEIDEDDFALEAEDLAALDSLERQYSQLPNSTVTASAKDIEKTAKVNHVGGDLQSYCSATKASDATINEEPVNLALDKACNSLPDINSDFIDDWDDSCDGCTPGELCEFSSEYTVLEVHEDFIFHEGNHFRQLKLILEANDILHQLFLRGDWTETSIFVGDSIRVEATFDKDNTAIVDNDKGLIIIHPKILMSATAVASSFPCLRKAVISDRVGIYGPPTKAMVTGNILHDFFQHALYRGIDALENVDINLETSIKTYISDIYFADLSLDEIREELDARLPLLKSIVERYLISKKNDNNNESIHISRLLDIEESIWSPRFGLKGNIDATVEVVLTEKPESSSTLTLPLELKTGRYVDNISHFAQSLLYTLLISDRYGINTNQALLCYLENSTIKNLVASNSQLRGLIMTRNSLAQHNFRRSLPEMISNRKICDHCSLVSECLFFQKMSDKGVANSNGLTESWNEWMREVKDEDLEFYKKWEKLLNQEERLLLLKRGDVLTFDTEELEAYGKTLYPLYITKEDIVCLEIDDRVFHYKFAFLNDNGYPRNFLHSGFSVGERVFISDEHGHWSLAKGHIVHIQDSCIEVRTRHRLHIPWLKMPNFDFKKNQVFFGNYEDSKLSFIGSNHTRYRIDKDEFSSGIASIRGTLMSSVLPDAPLIIRDMIIRLKPPKFCNSALIDPEFLKCLNEDQITALKKCHAAEHYSLILGMPGTGKTTTISSLIRSLLAKKKKILLTSFTHLAVDNILIKLKGCDSTIVRLGSPHKIHPLVKEFCLTEGTTFDDLASLKHFYEDPQIVACSSLGVYHSIFNKRKFDYCIIDEASQIPLPICLGPLQLAEKFVLVGDHYQLPPLVKNSRTSKDGLSLSLFKLLSEKHPEAVTTLRLQYRMNEDINSLSSELIYGGNLVCGSKTISQKKLILPKAHLSDGLPDSSSSLHWVNKLINPSHSVIFFNTDDILGVESKTNNILENHTEAFLIEQAVSSFLERGVKQSSIGIISIYKSQVELLSKNLKSFTEIEINTVDRYQGRDKDIILISFVRSNSKNLVGELLRDWHRLNVALSRAKVKCIMFGSLSTLSSSNIVSHLLKLLEKNKWIFTLNENDIATKFDENSSPIKDCSQVATTNNAKVIIRKNQRFFNSDNLCEKAILPQLEF

binding [3]: no binding
B2: Swi10, yeast two-hybrid fusion (protein, UniProt Q06182 1-252)
chain: MSDIDDEEFEQLAVSALEEVEKKAGFAQQPTPQKVSRVTAHSILVNPRQKGNPLLPHVRNVPWEYTDIVPDFVMGTGICSLFLSLKYHHLHPEYIYSRISKLGKSYNLRILLILVDVENHQASIQELVKTSIVNQYTLILAWSSEEAARYLETYKAYENMSPALIMEKPSTDYLSQVQSFLTSIRGINKSDSLSLLSKFGSLERALVASRDELEQLEGWGPTKVNRFLEAVQQPFMSHSTIKRPEAINLKQT

binding [4]: binds
B3: Myc-tagged Cdc24 (protein, UniProt O75004 1-501)
chain: MDFPGLIKKIKEDLENRLVEKSKQPAFTDYWLINKTISLLKEYPSGFSYPILINEIELACSERNKLDNVFSSLEWLTKSDAVIYLEDQFHFHCYDYYYTPIPSLKLKDSEENTCEMILHSSFYLLFHEPFNILKGSTLRFSQSRIHQKWYLRKQIRFLPTTSFVPVLQYAASKSFVKSMVESTEHEFFQIRDITISKSDQGVKRITVELGRIISLDKKGAFLIDNNTNFIHFSGTYHDFPKLLDKQQYLLIPFWSTVWEGSTNWQDGMIGILVILSENDFEEKKCDSWQVGRLAAVNSNFLVLDNNGQRVKILYSNSQKHYFKDTYIGDLLCISPINHSSDNLSDYSCVSDTTTEILSNLENPLSSNFLRNDLCKFSNLFSGVSGHLKIQPLTLVITGFVANLTRQSDLNTSLVLPEVNPLTAKMEVIDCLRNSFWAALRPNCVSYFASMISGFKELFQKEMEFPIYLDLKSYKLGFHWCDIYVDSEHNCHIQKINSLPCE

binding [4]: binds
B4: Myc-tagged Rad16 (protein, UniProt P36617 1-877)
chain: METKVHLPLAYQQQVFNELIEEDGLCVIAPGLSLLQIAANVLSYFAVPGSLLLLVGANVDDIELIQHEMESHLEKKLITVNTETMSVDKREKSYLEGGIFAITSRILVMDLLTKIIPTEKITGIVLLHADRVVSTGTVAFIMRLYRETNKTGFIKAFSDDPEQFLMGINALSHCLRCLFLRHVFIYPRFHVVVAESLEKSPANVVELNVNLSDSQKTIQSCLLTCIESTMRELRRLNSAYLDMEDWNIESALHRSFDVIVRRQLDSVWHRVSPKTKQLVGDLSTLKFLLSALVCYDCVSFLKLLDTLVLSVNVSSYPSNAQPSPWLMLDAANKMIRVARDRVYKESEGPNMDAIPILEEQPKWSVLQDVLNEVCHETMLADTDAETSNNSIMIMCADERTCLQLRDYLSTVTYDNKDSLKNMNSKLVDYFQWREQYRKMSKSIKKPEPSKEREASNTTSRKGVPPSKRRRVRGGNNATSRTTSDNTDANDSFSRDLRLEKILLSHLSKRYEPEVGNDAFEVIDDFNSIYIYSYNGERDELVLNNLRPRYVIMFDSDPNFIRRVEVYKATYPKRSLRVYFMYYGGSIEEQKYLFSVRREKDSFSRLIKERSNMAIVLTADSERFESQESKFLRNVNTRIAGGGQLSITNEKPRVIVDLREFRSSLPSILHGNNFSVIPCQLLVGDYILSPKICVERKSIRDLIQSLSNGRLYSQCEAMTEYYEIPVLLIEFEQHQSFTSPPFSDLSSEIGKNDVQSKLVLLTLSFPNLRIVWSSSAYVTSIIFQDLKAMEQEPDPASAASIGLEAGQDSTNTYNQAPLDLLMGLPYITMKNYRNVFYGGVKDIQEASETSERKWSELIGPEAGRRLYSFFRKQLKDYE

binding [3]: binds
B5: Rad16, yeast two-hybrid fusion (protein, UniProt P36617 1-877)
chain: METKVHLPLAYQQQVFNELIEEDGLCVIAPGLSLLQIAANVLSYFAVPGSLLLLVGANVDDIELIQHEMESHLEKKLITVNTETMSVDKREKSYLEGGIFAITSRILVMDLLTKIIPTEKITGIVLLHADRVVSTGTVAFIMRLYRETNKTGFIKAFSDDPEQFLMGINALSHCLRCLFLRHVFIYPRFHVVVAESLEKSPANVVELNVNLSDSQKTIQSCLLTCIESTMRELRRLNSAYLDMEDWNIESALHRSFDVIVRRQLDSVWHRVSPKTKQLVGDLSTLKFLLSALVCYDCVSFLKLLDTLVLSVNVSSYPSNAQPSPWLMLDAANKMIRVARDRVYKESEGPNMDAIPILEEQPKWSVLQDVLNEVCHETMLADTDAETSNNSIMIMCADERTCLQLRDYLSTVTYDNKDSLKNMNSKLVDYFQWREQYRKMSKSIKKPEPSKEREASNTTSRKGVPPSKRRRVRGGNNATSRTTSDNTDANDSFSRDLRLEKILLSHLSKRYEPEVGNDAFEVIDDFNSIYIYSYNGERDELVLNNLRPRYVIMFDSDPNFIRRVEVYKATYPKRSLRVYFMYYGGSIEEQKYLFSVRREKDSFSRLIKERSNMAIVLTADSERFESQESKFLRNVNTRIAGGGQLSITNEKPRVIVDLREFRSSLPSILHGNNFSVIPCQLLVGDYILSPKICVERKSIRDLIQSLSNGRLYSQCEAMTEYYEIPVLLIEFEQHQSFTSPPFSDLSSEIGKNDVQSKLVLLTLSFPNLRIVWSSSAYVTSIIFQDLKAMEQEPDPASAASIGLEAGQDSTNTYNQAPLDLLMGLPYITMKNYRNVFYGGVKDIQEASETSERKWSELIGPEAGRRLYSFFRKQLKDYE

— article PMC4159138, “Fission Yeast Pxd1 Promotes Proper DNA Repair by Activating Rad16^XPF and Inhibiting Dna2” (PLoS Biology, 2014)
